PubChem BioAssay AID1345085 (National Center for Advancing Translational Sciences (NCATS), 2018)
Inconclusive means that the source gave no clear call. Such entries were picked first, then a sample of the others. Potencies beside an inconclusive call are fits to weak or partial responses and may not hold up. Calls of active or inactive are those of the source. Calls come from the whole dose curve; as a rule, active = well fitted cell-killing curve with a large enough effect; inconclusive = small, poorly fitted or top-dose-only effect, or effect the other way; inactive = no such curve, though single readings can be large or run the other way.

test system: Hek293T; test: Confirmatory qHTS for gynecologic anti-cancer compounds from libraries of approved drugs and bioactive compounds; conditions: gynecologic cancer cell panel viability, ATPlite luminescence, 48 h; series mostly up to 57.6 µM; note: nearly all actives have a fitted effect of over 55% in size
Outline: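 ATPlite luminescence read-out of cell viability; IC50 from 11-point 1:3 titrations, 57.5 uM to 0.977 nM, 48 h compound exposure at 37 C, 5% CO2. Cells seeded at 1,000/well 16 h before dosing.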
Potency is the fitted concentration of half-maximal effect.

Structure (SMILES)	Potency
CCn1cc(-c2ccnc3[nH]c(-c4cccc(CN(C)C)c4)cc23)c(-c2ccc(NC(=O)N(C)C)cc2)n1	inconclusive: 0.841 µM [cytotoxic, single point]
Cc1cnc(Nc2cccc(CN3CCOCC3)c2)nc1Nc1cccc(S(=O)(=O)NC(C)(C)C)c1	inactive
CN1C(=O)C(Cc2c[nH]c3ccccc23)NC1=S (stereo not given)	inconclusive: 0.0188 µM [cytotoxic, full curve, poor fit]
COc1cc(C(=O)N2CCC(N3CCN(C)CC3)CC2)ccc1Nc1ncc2c(n1)N(C)c1ccccc1C(=O)N2C	inconclusive: 38.5 µM [cytotoxic, partial curve, poor fit]
CC1=C(CO)C(=O)O[C@@H]([C@@H](C)[C@H]2CC[C@H]3[C@@H]4C[C@H]5O[C@]56[C@@H](O)C=CC(=O)[C@]6(C)[C@H]4CC[C@]23C)C1	active: 2.37 µM
COc1cc(F)c(F)c(Nc2ccc(I)cc2F)c1NS(=O)(=O)C1(CC(O)CO)CC1 (stereo not given)	inconclusive: 10.9 µM [cytotoxic, full curve]
CN(C[C@@H]1COCCO1)S(=O)(=O)Nc1ccc2ccc3ncc(-c4cnn(C)c4)cc3c(=O)c2c1	inconclusive: 0.385 µM [rising, full curve, poor fit]
C1CCC(C(CC2CCCCN2)C2CCCCC2)CC1 (stereo not given)	active: 27.3 µM
Nc1ncnc2c1ncn2[C@@H]1O[C@H](CO)C[C@H]1O	inconclusive: 27.3 µM [cytotoxic, single point]
CCc1c2c(nc3ccc(O)cc13)-c1cc3c(c(=O)n1C2)COC(=O)[C@]3(O)CC	active: 0.611 µM

In the list so far, these contain an aryl methoxy group:
Structure (SMILES)	Potency
COc1cc(C(=O)N2CCC(N3CCN(C)CC3)CC2)ccc1Nc1ncc2c(n1)N(C)c1ccccc1C(=O)N2C	inconclusive: 38.5 µM [cytotoxic, partial curve, poor fit]
COc1cc(F)c(F)c(Nc2ccc(I)cc2F)c1NS(=O)(=O)C1(CC(O)CO)CC1 (stereo not given)	inconclusive: 10.9 µM [cytotoxic, full curve]
